In doi:10.1101/2024.06.14.598999 (bioRxiv, 2024):
No constants are given. Whether binding was seen depends on the method and setting. For some assays here: In cells and extracts the contact can be indirect. Some results given as binding are weak or reduced against the parent protein; the word gives no strength. Tags and fused reporters may be left off the sequences shown.

T1: human AP5β5 (1-632) with N-terminal GST tag and C-terminal Twin-Strep tag (subcomplex purification) (human) (UniProt Q2VPB7)
T1 sequence: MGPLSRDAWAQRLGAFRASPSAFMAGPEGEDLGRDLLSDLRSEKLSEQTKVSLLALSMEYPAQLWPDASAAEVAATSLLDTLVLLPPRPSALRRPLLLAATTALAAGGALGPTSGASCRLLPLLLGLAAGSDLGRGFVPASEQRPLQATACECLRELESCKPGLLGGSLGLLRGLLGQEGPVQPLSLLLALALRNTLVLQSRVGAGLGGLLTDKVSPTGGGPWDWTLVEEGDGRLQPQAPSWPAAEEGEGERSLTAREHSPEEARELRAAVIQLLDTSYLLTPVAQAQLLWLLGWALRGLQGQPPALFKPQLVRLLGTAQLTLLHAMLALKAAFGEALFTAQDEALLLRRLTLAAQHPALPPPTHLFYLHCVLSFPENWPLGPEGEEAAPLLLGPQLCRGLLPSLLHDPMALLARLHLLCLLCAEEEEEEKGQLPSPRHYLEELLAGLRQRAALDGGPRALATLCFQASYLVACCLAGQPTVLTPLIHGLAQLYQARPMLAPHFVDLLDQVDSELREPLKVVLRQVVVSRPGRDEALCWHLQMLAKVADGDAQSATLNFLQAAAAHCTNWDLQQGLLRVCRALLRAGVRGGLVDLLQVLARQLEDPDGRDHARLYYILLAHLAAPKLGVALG

T2: human His6-AP5β5 trunk domain (residues 1-632) (human) (UniProt Q2VPB7)
T2 sequence: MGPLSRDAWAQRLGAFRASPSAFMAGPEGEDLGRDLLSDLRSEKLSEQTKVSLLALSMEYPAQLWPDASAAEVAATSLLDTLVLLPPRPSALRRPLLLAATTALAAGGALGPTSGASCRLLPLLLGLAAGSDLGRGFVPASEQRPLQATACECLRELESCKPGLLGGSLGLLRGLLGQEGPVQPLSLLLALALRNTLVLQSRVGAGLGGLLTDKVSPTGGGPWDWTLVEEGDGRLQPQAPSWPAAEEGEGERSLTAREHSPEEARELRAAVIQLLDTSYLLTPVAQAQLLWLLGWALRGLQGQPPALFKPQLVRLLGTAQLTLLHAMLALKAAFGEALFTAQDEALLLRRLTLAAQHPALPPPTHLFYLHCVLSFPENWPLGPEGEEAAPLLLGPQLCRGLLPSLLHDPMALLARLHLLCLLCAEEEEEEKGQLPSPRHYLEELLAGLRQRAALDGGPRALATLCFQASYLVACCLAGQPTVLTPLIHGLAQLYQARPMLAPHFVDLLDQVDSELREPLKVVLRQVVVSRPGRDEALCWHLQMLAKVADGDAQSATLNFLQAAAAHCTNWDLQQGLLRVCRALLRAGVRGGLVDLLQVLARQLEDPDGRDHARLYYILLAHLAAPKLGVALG

T3: human His6-AP5β5, full length (residues 1-878) (human) (UniProt Q2VPB7)
T3 sequence: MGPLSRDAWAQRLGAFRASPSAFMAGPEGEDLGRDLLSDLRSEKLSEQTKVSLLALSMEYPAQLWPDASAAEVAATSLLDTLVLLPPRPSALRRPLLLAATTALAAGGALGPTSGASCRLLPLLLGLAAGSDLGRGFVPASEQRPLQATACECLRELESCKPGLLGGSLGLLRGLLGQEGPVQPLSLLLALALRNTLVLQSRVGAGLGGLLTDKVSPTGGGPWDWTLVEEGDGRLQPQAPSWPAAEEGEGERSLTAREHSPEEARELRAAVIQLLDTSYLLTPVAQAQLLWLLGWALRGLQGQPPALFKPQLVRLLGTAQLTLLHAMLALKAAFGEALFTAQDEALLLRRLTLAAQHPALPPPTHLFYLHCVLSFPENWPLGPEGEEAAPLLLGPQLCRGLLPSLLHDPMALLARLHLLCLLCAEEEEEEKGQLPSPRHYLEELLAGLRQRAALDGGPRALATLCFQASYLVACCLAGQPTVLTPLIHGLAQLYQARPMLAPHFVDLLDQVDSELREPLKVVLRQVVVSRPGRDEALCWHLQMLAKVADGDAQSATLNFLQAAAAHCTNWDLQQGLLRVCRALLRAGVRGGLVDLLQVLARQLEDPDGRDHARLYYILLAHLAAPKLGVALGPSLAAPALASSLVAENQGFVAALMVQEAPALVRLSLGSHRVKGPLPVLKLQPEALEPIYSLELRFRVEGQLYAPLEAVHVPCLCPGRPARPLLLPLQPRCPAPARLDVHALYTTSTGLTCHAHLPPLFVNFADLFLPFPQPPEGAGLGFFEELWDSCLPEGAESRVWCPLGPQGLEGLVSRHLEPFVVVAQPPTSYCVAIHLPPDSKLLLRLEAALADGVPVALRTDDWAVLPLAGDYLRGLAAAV

T4: MBP-TSF-SPG11^(WD40, Δ301-394) (human) (UniProt Q96JI7)
T4 sequence: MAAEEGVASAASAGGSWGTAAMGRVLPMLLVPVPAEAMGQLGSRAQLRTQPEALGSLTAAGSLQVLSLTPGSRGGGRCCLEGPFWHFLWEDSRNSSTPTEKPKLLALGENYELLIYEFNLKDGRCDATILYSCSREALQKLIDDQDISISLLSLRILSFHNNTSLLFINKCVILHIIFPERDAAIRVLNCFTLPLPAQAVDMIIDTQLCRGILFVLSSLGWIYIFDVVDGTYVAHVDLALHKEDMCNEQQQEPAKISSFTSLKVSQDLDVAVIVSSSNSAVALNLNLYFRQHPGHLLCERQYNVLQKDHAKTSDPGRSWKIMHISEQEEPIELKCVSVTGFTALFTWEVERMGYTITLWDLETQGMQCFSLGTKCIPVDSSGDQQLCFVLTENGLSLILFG

T5: MBP-TSF-SPG11^WD40 (residues 1-495) (human) (UniProt Q96JI7)
T5 sequence: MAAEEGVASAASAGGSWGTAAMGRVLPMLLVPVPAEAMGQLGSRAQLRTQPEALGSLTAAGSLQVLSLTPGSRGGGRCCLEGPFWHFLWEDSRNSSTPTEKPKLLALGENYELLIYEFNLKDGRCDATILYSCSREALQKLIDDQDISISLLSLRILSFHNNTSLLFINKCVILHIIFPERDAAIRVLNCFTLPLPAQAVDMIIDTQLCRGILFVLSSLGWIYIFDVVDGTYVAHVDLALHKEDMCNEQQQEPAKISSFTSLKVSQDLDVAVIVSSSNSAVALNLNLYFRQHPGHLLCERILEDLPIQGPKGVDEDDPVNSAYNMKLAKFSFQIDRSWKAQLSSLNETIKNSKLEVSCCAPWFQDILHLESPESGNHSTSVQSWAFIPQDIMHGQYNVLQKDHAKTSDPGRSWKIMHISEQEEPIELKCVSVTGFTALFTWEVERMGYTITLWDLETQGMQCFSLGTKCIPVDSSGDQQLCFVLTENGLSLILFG

T6: MBP-TSF-SPG11^WD40-hairpin (residues 1-525) (human) (UniProt Q96JI7)
T6 sequence: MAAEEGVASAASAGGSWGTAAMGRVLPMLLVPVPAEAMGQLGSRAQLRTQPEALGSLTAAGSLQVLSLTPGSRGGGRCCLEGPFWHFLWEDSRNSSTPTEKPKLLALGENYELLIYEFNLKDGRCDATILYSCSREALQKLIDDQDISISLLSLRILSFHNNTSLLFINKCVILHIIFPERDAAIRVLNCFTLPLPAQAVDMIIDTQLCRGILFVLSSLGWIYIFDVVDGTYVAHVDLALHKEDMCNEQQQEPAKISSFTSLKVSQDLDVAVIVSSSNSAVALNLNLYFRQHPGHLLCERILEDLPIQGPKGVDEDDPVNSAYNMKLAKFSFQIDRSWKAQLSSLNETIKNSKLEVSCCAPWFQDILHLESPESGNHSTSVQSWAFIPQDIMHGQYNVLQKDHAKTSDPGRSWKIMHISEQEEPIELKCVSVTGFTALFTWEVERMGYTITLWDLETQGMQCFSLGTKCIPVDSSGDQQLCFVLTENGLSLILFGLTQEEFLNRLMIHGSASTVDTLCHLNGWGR

T7: MBP-TSF-SPG11^(WD40-hairpin, Δ301-394) (human) (UniProt Q96JI7)
T7 sequence: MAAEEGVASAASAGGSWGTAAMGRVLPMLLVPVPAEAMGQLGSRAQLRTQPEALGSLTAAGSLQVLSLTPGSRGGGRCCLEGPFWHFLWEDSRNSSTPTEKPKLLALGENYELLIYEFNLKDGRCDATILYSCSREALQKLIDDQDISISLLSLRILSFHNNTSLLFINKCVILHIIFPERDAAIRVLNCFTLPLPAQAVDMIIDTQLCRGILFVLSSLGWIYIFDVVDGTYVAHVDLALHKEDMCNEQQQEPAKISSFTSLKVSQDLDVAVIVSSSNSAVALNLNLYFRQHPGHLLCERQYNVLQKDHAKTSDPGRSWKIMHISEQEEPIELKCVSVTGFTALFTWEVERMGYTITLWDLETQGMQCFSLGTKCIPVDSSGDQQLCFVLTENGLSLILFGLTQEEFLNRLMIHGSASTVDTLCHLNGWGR


Columns and labels:
[1] = target: T1, human AP5β5 (1-632) with N-terminal GST tag and C-terminal Twin-Strep tag (subcomplex purification) (human); experiment: SEC
[2] = target: T2, human His6-AP5β5 trunk domain (residues 1-632) (human); experiment: cryo-EM structure
[3] = target: T3, human His6-AP5β5, full length (residues 1-878) (human); experiment: cryo-EM structure
[4] = target: T4, MBP-TSF-SPG11^(WD40, Δ301-394) (human); experiment: pull-down
[5] = target: T5, MBP-TSF-SPG11^WD40 (residues 1-495) (human); experiment: pull-down
[6] = target: human SPG11 (spatacsin), full length, N-terminal Twin-Strep-Flag tag (human) (UniProt Q96JI7); experiment: pull-down
[7] = target: T6, MBP-TSF-SPG11^WD40-hairpin (residues 1-525) (human); experiment: pull-down
[8] = target: T7, MBP-TSF-SPG11^(WD40-hairpin, Δ301-394) (human); experiment: pull-down

| Binder | binding [1] | binding [2] | binding [3] | binding [4] | binding [5] | binding [6] | binding [7] | binding [8] |
| --- | --- | --- | --- | --- | --- | --- | --- | --- |
| mouse AP5μ5 (residues 1-490) (protein, UniProt Q8BJ63 1-490) MALRAVWLIRHEPGTPLGGTVRFSRRYPTVEKRAKAFNGMTYVPVPEDGPFLRALLFQLRLLDDDKDFMERRDGCSRINKTSIYGLSVGGEELWPVIAFLRDSMIYASVPLVEQALSPRPPLISISGVSQGLELLLGIQDFLYSSQKNDTDLHTKLSQLPDLLLQACPLGTLLDANLQNSLNSINSVSVTQPQKQPAWKVGAYKGKAQISISITETVKCMQYGKQDIADTWQVAGTVACKCDLEGVMPAVTISLSLPTNGSPLQDIIVHPCVTSLDSAILTSSSIDTMDDSAFSGPYKFPFTPPLESFNLCHYTSQVPVPPILGSYHMKEEGVQLKVTVNFKLHESVRNNFEVCEAHIPFYNRGPITHLEYKASFGQLEVFREKSLLVWIIGQKFPKSMEISLSGTLTFGVKGHNKQPFDHICIGNTAYIKLNFRIADYTLTGCYADQHSVQVFASGKPKISAYRKLISSDYYIWNSKAPAPVTYASLLP | binds | binds | binds | – | – | – | – | – |
| AP5ζ-GST/σ5 subcomplex in Expi293F lysate (mouse AP5ζ-GST with human AP5σ5) (complex, UniProt Q3U829 1-807; Q9NUS5 1-200) chain 1: MFSAGAESLLHQAREIQDEELRRFCSRVTKLLQEAPGPATVDALQRLFLIVSATKYPRRLEKMCVDLLQTTLCLPASPEQLQVLCAAILREMSPFNDLALSCDHTPNTRQLSLVASVLLAQGDRKGEIRCVSQRIFKILENRQPEGPSVRPLLPILSKVIGLAPGILMEDQTNLLSKRLVDWLRYASIQQGLPYSGGFFSTPRTRQPGPITEVDGAVASDFFTVLSTGQHFTEDQWVNMQAFSMLRKWLLHSGPEDPCSPDADDKSELEGSTLSVLSAASTASRLLPPRERLREVAFEYCQRLLEQSNRRALRKGDSDLQKACLVEAVSVLDVLCRQDPSFLYRTLSCLKALHRRLGEDPGSERALVPLAQFFLNHGEAAAMDAEAVYGQLLRGLPSERFHSPTLAFEVIHFCTHNLALFDSHFLSLLRLSFPSLFKFLAWNSPPLTAEFVVLLPALVDAGTAVEMLHALLDLPCLTAALDLQLRSTQTPSERLLWDISLRVPSCLEAFQDPQFQGLFRHLLRTKASGSTERLTPLHQVLKPMASCARVTQCAEAVPVLLQAFFSAVTQTADGALINQLALLLLERSDSLYPVPQYEARVHGVLSSQLLVLCKLKPSLVVELSRELLEFVGSVSSIHSRASVFTCVVWAIGEYLSVTWDKRCTAEQINKFFEALEALLFEVTQSRPLADLPCCPPEVVTALMTTLTKLASRSQDLIPRVSLFLSKMRTLAQNPATSSVHSEEGAESIRTRASELLTLLKMPSVAQFVFTPPAGVCQPRYHRDTNVALPLALRTVSRLVEKEAGLLPG chain 2: MVHAFLIHTLRAPNTEDTGLCRVLYSCVFGAEKSPDDPRPHGAERDRLLRKEQILAVARQVESMCRLQQQASGRPPMDLQPQSSDEQVPLHEAPRGAFRLAAENPFQEPRTVVWLGVLSLGFALVLDAHENLLLAEGTLRLLTRLLLDHLRLLAPSTSLLLRADRIEGILTRFLPHGQLLFLNDQFVQGLEKEFSAAWPR | – | – | – | no binding | binds | binds | binds | no binding |
